These are yes or no findings as the source states them, for the method shown. For some assays here: Binding seen in cells or lysates may run through a third protein. Some entries that bind do so weakly or less than the wild type. For some assays here: Where a sequence is shown, tags or fusion partners need not be part of it. One block for each molecule: values may come before it.
How the values were obtained:
[1] = molecular target: Thermoplasma acidophilum 20S proteasome α subunit expressed alone (Thermoplasma acidophilum) (UniProt P25156); assay: native MS; proteins expressed from a single plasmid that codes only for the α subunit
[2] = molecular target: T1, Thermoplasma acidophilum 20S proteasome β subunit with Twin-Strep-tag (Thermoplasma acidophilum) (UniProt P28061); assay: cryo-EM structure; 20S captured with SNAP beads, dissolving product put on the grid without removal of the polymers; 120 micrographs, D7 symmetry, 3.16 Å
T1 sequence: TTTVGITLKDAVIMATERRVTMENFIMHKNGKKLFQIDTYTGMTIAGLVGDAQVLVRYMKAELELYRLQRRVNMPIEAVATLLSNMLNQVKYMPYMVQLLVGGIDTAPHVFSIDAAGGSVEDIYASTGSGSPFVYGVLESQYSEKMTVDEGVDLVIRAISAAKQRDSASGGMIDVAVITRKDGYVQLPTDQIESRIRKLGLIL

[3] = molecular target: Thermoplasma acidophilum 20S proteasome α subunit, unmodified (Thermoplasma acidophilum) (UniProt P25156); assay: as above
[4] = molecular target: T1, Thermoplasma acidophilum 20S proteasome β subunit with Twin-Strep-tag (Thermoplasma acidophilum); assay: pull-down; α and Twin-Strep-tagged β expressed from two separate plasmids in E. coli; capture from lysate with Strep-Tactin SNAP beads; SDS-PAGE and Western blot with anti-Strep Ab

- binding [1]: binds
Molecule: Thermoplasma acidophilum 20S proteasome α subunit expressed alone (from UniProt P25156 1-233)

- binding [2]: binds
B1: Thermoplasma acidophilum 20S proteasome β subunit with Twin-Strep-tag (protein, UniProt P28061 9-211)
chain: T1 sequence

- binding [3]: binds
- binding [2]: binds
- binding [4]: binds
B2: Thermoplasma acidophilum 20S proteasome α subunit, unmodified (natural protein, UniProt P25156 1-233, looked up)
chain: MQQGQMAYDRAITVFSPDGRLFQVEYAREAVKKGSTALGMKFANGVLLISDKKVRSRLIEQNSIEKIQLIDDYVAAVTSGLVADARVLVDFARISAQQEKVTYGSLVNIENLVKRVADQMQQYTQYGGVRPYGVSLIFAGIDQIGPRLFDCDPAGTINEYKATAIGSGKDAVVSFLEREYKENLPEKEAVTLGIKALKSSLEEGEELKAPEIASITVGNKYRIYDQEEVKKFL
notes: 20S proteasome α subunit of Thermoplasma acidophilum; The results call this α subunit unmodified; the methods say that the constructs were tagged at the C-termini with either a Twin-Strep-tag or a His tag

Source: article PMC11452662, “Biofunctionalized dissolvable hydrogel microbeads enable efficient characterization of native protein complexes” (Nature Communications, 2024)
